Experimental data reported in PubChem BioAssay AID1347421 (Sanford-Burnham Center for Chemical Genomics, 2020).
In all, about 1,500 compounds were measured (“activity”: median about 2, lowest 2% from about -18 on). The list shows a part of the results. The source made the active and inactive calls.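 Rule for the calls: active = inhibition of at least 40% at 10 µM; inconclusive = no clear call, values can overlap the other calls; inactive = the rest.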

Sequences of proteins named here, by UniProt entry; tags and fusion partners are left off. A change or cut given only in a name is not applied to a line headed by its entry.
UniProt O00391: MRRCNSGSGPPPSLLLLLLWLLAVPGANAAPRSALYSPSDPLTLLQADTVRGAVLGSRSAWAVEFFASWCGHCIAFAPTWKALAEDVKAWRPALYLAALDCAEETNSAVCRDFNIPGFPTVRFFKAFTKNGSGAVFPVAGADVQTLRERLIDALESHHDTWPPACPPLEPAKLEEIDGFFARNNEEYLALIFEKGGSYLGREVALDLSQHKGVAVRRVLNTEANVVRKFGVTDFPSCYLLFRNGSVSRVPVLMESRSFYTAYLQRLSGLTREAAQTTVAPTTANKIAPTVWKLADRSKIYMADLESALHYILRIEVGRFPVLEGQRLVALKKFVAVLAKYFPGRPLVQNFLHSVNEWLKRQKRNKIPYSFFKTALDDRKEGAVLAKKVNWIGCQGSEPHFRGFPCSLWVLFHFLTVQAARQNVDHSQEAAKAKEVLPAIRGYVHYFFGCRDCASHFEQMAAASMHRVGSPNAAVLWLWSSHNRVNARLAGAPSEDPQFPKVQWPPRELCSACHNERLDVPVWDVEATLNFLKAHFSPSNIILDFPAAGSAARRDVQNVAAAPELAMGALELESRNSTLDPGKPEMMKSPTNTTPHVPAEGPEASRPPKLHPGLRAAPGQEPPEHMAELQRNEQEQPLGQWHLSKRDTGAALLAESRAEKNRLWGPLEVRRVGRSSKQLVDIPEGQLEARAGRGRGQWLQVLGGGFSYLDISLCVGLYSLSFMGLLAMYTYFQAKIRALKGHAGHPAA

Molecular target: Sulfhydryl oxidase 1 (Homo sapiens) (UniProt O00391)
Assay: QSOX1 enzyme inhibitors, confirmation, biochemical, ROS-Glo luminescence, single concentration (AID 1347421);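 note: 0% = DMSO wells with enzyme and 100% = wells lacking QSOX1 enzyme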
Details: recombinant hQSOX1, RNase A substrate, ROS-Glo H2O2 luminescence; at 10 µM

Compound	activity
Cc1nc(CN2CCN(Cc3nc(-c4cccc(Cl)c4)no3)CC2)cs1	inactive: -1.4%
OC(COc1cccc(CNCc2ccc3nsnc3c2)c1)CN1CCOCC1 (configuration not stated)	0.3%
CC(C)Oc1cccc(NC(=O)c2ccccc2Cl)c1	inactive: -28.9%
C=CCCC(=O)N1CCC2(CCCN(Cc3ccc(F)c(F)c3)C2=O)C1 (configuration not stated)	inactive: -1.3%
CN(Cc1ccccc1)C1CCCN(Cc2nc(-c3ccccc3)no2)C1 (configuration not stated)	inactive: -2.9%
C=CCN(CC=C)C(=O)Cn1nnnc1CN1CCOCC1	8.8%
COC(=O)c1ccc(CNC(=O)CC2C(=O)NCCN2Cc2cccs2)cc1 (configuration not stated)	2.8%
O=Cc1ccc(C(=O)N2CCCC(C(=O)c3cccc4ccccc34)C2)cc1 (configuration not stated)	inactive: -2.5%
CSCCC(=O)N1CCC(CCC(=O)NCc2cccc(Cl)c2)CC1	2.9%
COc1ccc(Cl)cc1-c1noc(COc2ccccc2)n1	6.3%
CCC1CCC(=O)C(C2(O)C(=O)Nc3ccc(Br)cc32)C1 (configuration not stated)	2.7%
COc1ccccc1-c1cnn(CC(=O)Nc2c(-c3ccccc3)cnn2C)c1	4.5%
CN(C(=O)CCN1CCCCO1)C1CCCN(Cc2ccccc2F)C1 (configuration not stated)	inactive: -4.3%
Cc1nc(SCC(=O)N2CCN(c3ccccc3)CC2)nc2c1CCCC2	inactive: -19.5%
CC1(C)CN(C(=O)Nc2nnc(-c3ccco3)s2)CCO1	inactive: -7.1%
COc1ccc(CNCC(C)(C)CO)cc1OCC(O)CN(C)C(C)C (configuration not stated)	8.7%
CC(C)(C)C(=O)N1CCN(c2ccc(NC(=O)c3cccc(F)c3)cc2)CC1	inactive: -5.5%
COC1=C(OC)C=CC(c2nnn(C3CCNCC3)n2)=[C+]1	inactive: -20.6%
C=C(C)CNCc1ccc(OCC(O)CN2CCC(C(=O)OC)CC2)cc1 (configuration not stated)	16.9%
CN1CCCN(c2nc3nonc3nc2N2CCSCC2)CC1	inactive: -4.7%
COc1ccc(CNCc2ccccc2)cc1OCC(O)CN(C)C(C)C (configuration not stated)	inactive: -0.1%
CCN(Cc1cnn(C)c1)C(=O)c1ccc(OC2CCN(C)CC2)c(OC)c1	7.9%

Taken from above:
Entry for COc1ccc(CNCc2ccccc2)cc1OCC(O)CN(C)C(C)C (configuration not stated) under activity: inactive: -0.1%
Entry for C=CCCC(=O)N1CCC2(CCCN(Cc3ccc(F)c(F)c3)C2=O)C1 (configuration not stated) under activity: inactive: -1.3%
Entry for COc1ccc(CNCC(C)(C)CO)cc1OCC(O)CN(C)C(C)C (configuration not stated) under activity: 8.7%
Entry for CSCCC(=O)N1CCC(CCC(=O)NCc2cccc(Cl)c2)CC1 under activity: 2.9%
Entry for COC(=O)c1ccc(CNC(=O)CC2C(=O)NCCN2Cc2cccs2)cc1 (configuration not stated) under activity: 2.8%
Entry for C=CCN(CC=C)C(=O)Cn1nnnc1CN1CCOCC1 under activity: 8.8%

More compounds:

Compound	activity
COc1cc(CNCC2CCOCC2)ccc1OCC(O)CN1CCCC1 (configuration not stated)	inactive: 0%
C=CCn1nnnc1NCc1ccc(F)cc1	7.4%
Cc1ncoc1C(=O)N1CCc2c([nH]c3ccccc23)C1C(C)(C)C (configuration not stated)	2.7%
CCCn1cc(-c2cc(C(=O)N3CCCC3)c3cc(F)ccc3n2)cn1	3.2%
[C+]1=C(Cc2ccccc2)C=CC(OCCN2CCOCC2)=C1	2.5%
CN(C)CCNC(=O)CCC1CCN(Cc2nccs2)CC1	0.5%
OCCOc1cccc(CN2CCN(Cc3ccccc3F)C(CCO)C2)c1 (configuration not stated)	5.7%
N#Cc1ccccc1CN1C(=O)C(=O)c2ccccc21	1.6%
COc1ccc(OC2CCN(C(=O)C3CC3)CC2)c(C(=O)NCCCN2CCOCC2)c1	2%
CN(CCc1cn[nH]c1)Cc1c(C(=O)N2CCCCCCC2)nc2ccc(Cl)cn12	11%
COCCn1c(CN(C)Cc2cccs2)cnc1S(=O)(=O)CC1CC1	7.7%
CCCC(=O)Nc1ccccc1NC(=O)c1ccccc1SC	inactive: -2.9%
CN1C(=O)c2ccc(C(=O)N(C)C3CCCN(Cc4ccccc4F)C3)cc2C1=O (configuration not stated)	6.9%
C#CCN(Cc1cnc(S(=O)(=O)CC)n1CCCC)C1CCCCC1	3%
FC(F)(F)C1=[C+]C(OCCNCc2ccco2)=CC=C1	inactive: -15.8%
COc1ccc(S(N)(=O)=O)cc1NC(C)=O	inactive: -13.7%
O=C(CCC1CCCN(C(=O)C2(c3ccccc3)CCCCC2)C1)N1CCOCC1 (configuration not stated)	5.6%
Cc1noc(C)c1CC(=O)N1CCCC(CCC(=O)N(C)CCc2ccccn2)C1 (configuration not stated)	5.3%
COC(=O)C1CCN(C(=O)C(C)NC(=O)CC23CC4CC(CC(C4)C2)C3)CC1 (configuration not stated)	1.8%
O=C(Nc1ccnn1C1CCN(Cc2ccc(CO)o2)CC1)c1ccccc1Cl	inactive: -0.6%
COCCN1CCC(CN(Cc2ccncc2)Cc2ccc3c(c2)CCO3)CC1	0.4%
O=C1N(Cc2cccc(F)c2F)CCCC1(O)CN1CCCC1 (configuration not stated)	3.2%

Compound	activity
O=C(CCC1CCN(Cc2c(F)cccc2Cl)CC1)N1CCCC1	11.6%
COc1ccc(CCN(C)C2CCCN(C3CCN(C(C)=O)CC3)C2)cc1OC (configuration not stated)	6.8%
O=C(c1ncn[nH]1)N1CCC2(CC1)c1ccccc1[C@@H](N1CCCCC1)[C@@H]2O	inactive: -9.2%
CCOC(=O)N1CCN(C2CCCN(C(=O)c3ccccc3SC)C2)CC1 (configuration not stated)	4.1%
O=C(c1n[nH]c2c1CCC2)N1CCC2(CCCN(Cc3cccnc3)C2=O)C1 (configuration not stated)	3.7%
COCCN1CCC(CN(Cc2ccncc2)Cc2cc3ccccc3o2)CC1	1.5%
COc1cccc(CC2CN(Cc3cccc(C)n3)CCO2)c1 (configuration not stated)	0.1%
Cc1c(C(=O)NCc2cccnc2)sc2ncnc(NCc3ccco3)c12	10.3%
Cc1ccc(-c2ccc(C(=O)N3CCOC(CCN(C)C)C3)cc2)o1 (configuration not stated)	inactive: -0.4%
Cc1nc(NC(=O)NCc2scnc2-c2ccccc2)nn1C(C)C	4.5%
O=C(NC1CC(=O)N(Cc2cccc3ccccc23)C1)C(=O)c1ccccc1 (configuration not stated)	inactive: -11.4%
O=C(Cc1cccnc1)N1CCC2(CCCN(CCC3CCCCC3)C2=O)C1 (configuration not stated)	1.7%
COc1ccc(CC2CN(C(=O)c3ccc4nccnc4c3)CCO2)cc1 (configuration not stated)	inactive: -1.2%
c1cnc(-n2ccnc2)c(CNC2CCCCCCC2)c1	2.4%
COc1ccc(CNCc2cc(C)n(C)n2)c(OCC(O)CN2CCCC2)c1 (configuration not stated)	inactive: -2.4%
COc1ccccc1C(=O)Nc1ccc(N2CCN(C(=O)c3cccs3)CC2)cc1	inactive: -10.8%
Cc1ccccc1-n1c(C)cc(=O)[nH]c1=O	inactive: -13.4%
CCN(CC)C(=O)NCc1ccccn1	inactive: -15.1%
Cc1cccn2c(=O)c3cc(C(=O)N4CCCCC4)n(C)c3nc12	inactive: -4.1%
CCOc1ccc(CN2CCN(Cc3cc(C)[nH]n3)CC2CCO)cc1 (configuration not stated)	inactive: -1.8%
Fc1ccc(C2(CNc3ccnn3C3CCCC3)CCOC2)cc1 (configuration not stated)	9.8%
C#CN(CCC)c1nc(NCC)nc(NCC)n1	inactive: -7.9%

Compound	activity
CCOCCCNC(=O)CCc1nnc(Cc2cc(OC)ccc2OC)o1	7.5%
Cc1[nH]cnc1CN1CCc2[nH]nc(-c3ccc(Cl)cc3)c2C1	0.7%
CN1CCN(CC(=O)NCC23C[C+]4CC(CC(C4)C2)C3)CC1	9.9%
NC(=O)c1ccc(S(=O)(=O)NCc2cccs2)cc1	6.3%
COc1cccc(CN2CCCC3(CCN(Cc4cnc(C)n4C)C3)C2)c1OC (configuration not stated)	inactive: -2.7%
COc1cccc(CC2CN(Cc3ccc(CO)o3)CCO2)c1 (configuration not stated)	17.2%
c1ccc(CNc2ccc(NCc3ccccc3)nn2)cc1	inactive: -8.7%
COc1cc(CN(C)Cc2ccn[nH]2)ccc1OCC(O)CN(C)C(C)C (configuration not stated)	7.9%
CS(=O)(=O)Nc1ccc(C(=O)N2CCCCCC2)cc1	3.9%
COc1ccc(CNCC2CCOCC2)c(OCC(O)CN2CCN(C)CC2)c1 (configuration not stated)	7.1%
COc1cc(S(=O)(=O)N2CCN(C)CC2)c(OC)cc1C	1.6%
O=C(NCCCOc1cccnc1)C1CCC(=O)N(CCc2cccc(F)c2)C1 (configuration not stated)	2.2%
O=C(CCC1CCCN(Cc2cccnc2)C1)N1CCN(Cc2ccccc2)CC1 (configuration not stated)	8.5%
CC(C)CS(=O)(=O)c1ncc(CN2C[C@@H](C)O[C@@H](C)C2)n1Cc1ccccc1	inactive: -1.1%
CCCOc1ccccc1C(=O)Nc1ccc(NC(C)=O)cc1	0.8%
COCCN1C(=O)C(=O)/C(=C(\O)c2ccc(OC)cc2C)C1c1cccnc1 (configuration not stated)	inactive: -3%
Cc1cc(C)cc(NC(=O)N2CCCCCC2)c1	inactive: -6.1%
CC(C)CC1c2[nH]c3ccccc3c2CCN1Cc1ccc(CO)o1 (configuration not stated)	9.2%
OC(COc1ccccc1CNCCc1ccccn1)CN1CCSCC1 (configuration not stated)	5.9%
O=C(C(=O)N1CCOC(CCCc2ccccc2)C1)c1ccco1 (configuration not stated)	inactive: -3.7%
COCCS(=O)(=O)c1ncc(CN2CCCCC2CCO)n1Cc1ccccc1 (configuration not stated)	1.6%
COc1cccc(CC2CN(C(=O)c3sccc3Cl)CCO2)c1 (configuration not stated)	inactive: -1.7%

Compound	activity
C#CCN(CC=C)Cc1nc(-c2ccc(C)s2)oc1C	inactive: -0.2%
O=C(CCc1ccccc1)Nc1ccnn1C1CCN(C(=O)C2CCOC2)CC1 (configuration not stated)	6.6%
COCC(=O)Nc1ccccc1C(=O)NC1CCCCC1	1.3%
CC(Cc1ccsc1)NC(=O)CCCn1nnnc1CN1CCOCC1 (configuration not stated)	2.4%
CCN1CCN(CC(O)COc2cccc(CNCCn3cccn3)c2)CC1 (configuration not stated)	4.8%
CCS(=O)(=O)c1ncc(CN(C)Cc2ccsc2)n1Cc1ccccc1	10.4%
Cc1cc(C(=O)NC2CCCN(C3CCCCCC3)C2)nc(N)n1 (configuration not stated)	inactive: -0.9%
O=C(c1cn(Cc2ccc(F)cc2Cl)nn1)N1CCCCC1CCN1CCOCC1 (configuration not stated)	2.5%
Cc1ccc(OCCN(C)Cc2nc(COc3ccccc3)no2)cc1	inactive: -3.6%
CCOC(=O)C1(CCCc2ccccc2)CCN(C(=O)CCn2cnnn2)CC1	0.6%
O=S(=O)(CC1CC1)c1ncc(CN2CCCCCCC2)n1CC1CCCO1 (configuration not stated)	3.5%
CCN(CC)C(=O)C1CCCN(Cc2nc(-c3ccc(Cl)cc3)oc2C)C1 (configuration not stated)	4.3%
COc1ccc(CNCCCSC)cc1OCC(O)CN(C)C(C)C (configuration not stated)	3.5%
COCc1ccc(C(=O)NC2CC(=O)N(CC3CCCCC3)C2)o1 (configuration not stated)	inactive: -0.2%
COc1cc(C(=O)NC2CCCCC2)ccc1OC1CCN(C(C)=O)CC1	3.4%
Cc1cccc2nc(CNC(=O)CCc3nnc(C4CCCCC4)o3)cn12	3.4%
OC(COc1cccc(CNCCc2cnc[nH]2)c1)CN1CCCCCC1 (configuration not stated)	16.3%
CN1CCCCCC1C(=O)NCc1cccnc1N1CCN(c2ccccn2)CC1 (configuration not stated)	inactive: -5.2%
COc1cccc(CN2CCNC(=O)C2CC(=O)NC2CCCCCCC2)c1 (configuration not stated)	2.4%
